Test results reported in paper PMC12515711.

Amino acid sequences for entries named in this document (tags omitted).
UniProt Q9DBC7: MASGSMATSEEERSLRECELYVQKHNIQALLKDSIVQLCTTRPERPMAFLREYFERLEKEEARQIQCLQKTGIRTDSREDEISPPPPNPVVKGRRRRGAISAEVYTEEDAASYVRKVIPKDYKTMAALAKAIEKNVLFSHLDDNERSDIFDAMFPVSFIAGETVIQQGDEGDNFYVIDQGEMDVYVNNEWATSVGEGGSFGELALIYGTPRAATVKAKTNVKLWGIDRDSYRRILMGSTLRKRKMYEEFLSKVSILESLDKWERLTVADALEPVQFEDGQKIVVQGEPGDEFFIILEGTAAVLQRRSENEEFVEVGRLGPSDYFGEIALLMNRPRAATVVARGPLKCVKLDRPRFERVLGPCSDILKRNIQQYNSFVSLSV
UniProt P12849: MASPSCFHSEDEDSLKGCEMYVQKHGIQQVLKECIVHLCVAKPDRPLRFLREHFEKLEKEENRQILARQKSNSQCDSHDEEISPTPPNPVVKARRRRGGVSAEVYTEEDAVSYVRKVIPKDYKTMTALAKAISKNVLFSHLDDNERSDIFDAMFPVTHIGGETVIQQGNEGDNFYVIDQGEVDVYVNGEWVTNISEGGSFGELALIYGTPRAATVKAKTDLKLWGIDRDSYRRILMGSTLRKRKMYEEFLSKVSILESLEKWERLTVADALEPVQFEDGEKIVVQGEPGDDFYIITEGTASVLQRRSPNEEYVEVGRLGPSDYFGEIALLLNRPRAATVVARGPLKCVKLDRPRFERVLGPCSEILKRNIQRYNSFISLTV
UniProt P12367: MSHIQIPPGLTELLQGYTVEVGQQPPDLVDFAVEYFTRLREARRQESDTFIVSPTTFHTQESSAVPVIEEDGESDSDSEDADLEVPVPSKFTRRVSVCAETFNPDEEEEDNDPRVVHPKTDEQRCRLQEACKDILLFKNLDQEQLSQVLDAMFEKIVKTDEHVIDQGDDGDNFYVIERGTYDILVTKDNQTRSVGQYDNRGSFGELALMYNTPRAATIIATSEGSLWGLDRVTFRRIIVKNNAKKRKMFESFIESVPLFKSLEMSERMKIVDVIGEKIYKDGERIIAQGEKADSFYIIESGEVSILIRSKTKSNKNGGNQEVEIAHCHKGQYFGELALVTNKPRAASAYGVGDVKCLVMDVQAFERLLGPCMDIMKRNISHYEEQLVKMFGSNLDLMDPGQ
UniProt P31324: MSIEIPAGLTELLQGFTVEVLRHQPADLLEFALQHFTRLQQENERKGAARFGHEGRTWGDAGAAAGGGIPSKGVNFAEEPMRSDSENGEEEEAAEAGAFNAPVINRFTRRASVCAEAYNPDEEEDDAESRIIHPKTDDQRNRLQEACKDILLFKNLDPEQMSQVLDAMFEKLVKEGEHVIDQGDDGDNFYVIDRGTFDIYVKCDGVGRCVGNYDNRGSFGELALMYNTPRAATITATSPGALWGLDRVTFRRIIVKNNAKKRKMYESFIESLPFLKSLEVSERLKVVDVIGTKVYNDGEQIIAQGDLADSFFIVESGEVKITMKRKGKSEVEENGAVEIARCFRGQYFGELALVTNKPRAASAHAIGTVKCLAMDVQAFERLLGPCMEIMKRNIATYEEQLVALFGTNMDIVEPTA

T1: MuRF3-Myc (His)6 (in C2C12) (UniProt Q9ERP3)
T1 sequence: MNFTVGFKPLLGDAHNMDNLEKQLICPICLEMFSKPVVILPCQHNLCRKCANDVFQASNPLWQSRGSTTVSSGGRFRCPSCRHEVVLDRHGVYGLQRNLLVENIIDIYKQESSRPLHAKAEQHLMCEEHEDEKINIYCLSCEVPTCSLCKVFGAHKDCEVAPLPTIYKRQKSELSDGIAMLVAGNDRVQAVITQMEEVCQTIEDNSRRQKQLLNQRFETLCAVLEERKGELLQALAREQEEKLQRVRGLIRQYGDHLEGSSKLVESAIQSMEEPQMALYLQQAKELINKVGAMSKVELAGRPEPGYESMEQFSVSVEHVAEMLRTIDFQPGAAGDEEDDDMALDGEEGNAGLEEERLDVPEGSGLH

T2: SNX5 on SNX5-coated vesicles immunoprecipitated from C2C12 myocytes (UniProt Q9D8U8)
T2 sequence: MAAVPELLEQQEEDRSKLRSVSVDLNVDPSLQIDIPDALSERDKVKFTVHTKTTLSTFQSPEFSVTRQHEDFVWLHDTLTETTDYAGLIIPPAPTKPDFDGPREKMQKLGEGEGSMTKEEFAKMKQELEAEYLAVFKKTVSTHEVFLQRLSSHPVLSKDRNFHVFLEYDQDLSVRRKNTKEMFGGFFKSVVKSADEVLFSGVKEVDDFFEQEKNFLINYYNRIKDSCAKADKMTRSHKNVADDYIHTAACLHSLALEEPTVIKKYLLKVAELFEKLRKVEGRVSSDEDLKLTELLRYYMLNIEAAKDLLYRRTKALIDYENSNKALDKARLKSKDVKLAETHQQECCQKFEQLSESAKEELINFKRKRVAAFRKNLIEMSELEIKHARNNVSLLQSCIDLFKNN

B1: sorting nexin 5 (SNX5), endogenous in C2C12 (protein, UniProt Q9D8U8 1-404)
chain: T2 sequence
B2: SNX2 (protein, UniProt Q9CWK8 1-519)
chain: MAAEREPPPLGDVKPTDFEELEDGEDLFTSTVSTLESSPSSPEPASLPAEDISANSNGSKPVEVVLDDDREDLFAEATEEVSLDSPERELILSSEPSPAVTPVTPTTLIAPRIESKSISAPVIFDRSRDEIEEEANGDIFDIEIGVSDPEKVGDGMNAYMAYRVTTKTSLSMFSKSEFSVKRRFSDFLGLHSKLASKYLHVGYIVPPAPEKSIVGMTKVKVGKEDSSSTEFVEKRRAALERYLQRTVKHPTLLQDPDLRQFLESSELPRAVNTQALSGAGILRMVNKAADAVNKMTIKMNESDAWFEEKQQQFENLDQQLRKLHASVEALVCHRKELSANTAAFAKSAAMLGNSEDHTALSRALSQLAEVEEKIDQLHQEQAFADFYMFSELLSDYIRLIAAVKGVFDHRMKCWQKWEDAQITLLKKRETEAKMMVANKPDKIQQAKNEIREWEAKVQQGERDFEQISKTIRKEVGRFEKERVKDFKAVIIKYLESLVQTQQQLIKYWEAFLPEAKAIA

target: T1, MuRF3-Myc (His)6 (in C2C12); assay: affinity purification with mass spectrometry; SILAC; MuRF3-Myc (His)6 captured on Ni-Sepharose-6 Fast Flow from lysate of transfected Lys0 C2C12 cells (10 mM Tris-HCl pH 7.5, 150 mM NaCl), 3 h at 4°C; Lys4 cells with control vector; eluted with 120 mM EDTA

Row | binding | Molecule
1 | binds | B1

target: T2, SNX5 on SNX5-coated vesicles immunoprecipitated from C2C12 myocytes; assay: affinity purification with mass spectrometry; SNX5-coated vesicles immunoprecipitated from C2C12 myocytes, then mass spectrometry (workflow in Figure S4A)

Row | binding | Molecule
2 | binds | RI-α (cAMP-dependent protein kinase type I alpha regulatory subunit) (from UniProt Q9DBC7 1-381)
3 | no binding | RI-β (from UniProt P12849 1-381)
4 | no binding | RII-α (from UniProt P12367 1-401)
5 | no binding | RII-β (from UniProt P31324 1-416)
6 | binds | B2

No constants are given. Whether binding was seen depends on the method and setting. In cells and extracts the contact can be indirect. A yes stands for co-enrichment or nearness to the bait. Other partners may have been found. For part of these data: A no says only that the protein was not detected with the bait. For part of these data: Tags and fused reporters may be left off the sequences shown.
